Data on one molecule can be found in the supplement of paper PMC10727501.

Holding throughout (conditions): 10 µM; pre-incubation: 30-90 min
Assay [1] deals with Danio rerio larvae (5 dpf, TLF). The assay can be described thus: OMR-Perf (SSMD vs DMSO vehicle); higher = higher than vehicle (e.g. higher dark-flash O-bend response probability, or better optomotor performance).
Assay [2] has the same test system. Description: Prob-Test (SSMD vs DMSO vehicle); higher = higher than vehicle (e.g. higher dark-flash O-bend response probability, or better optomotor performance).
The test system is the same in assay [3]. Description: Prob-Naive (SSMD vs DMSO vehicle); higher = higher than vehicle (e.g. higher dark-flash O-bend response probability, or better optomotor performance).
Assay [4] has the same test system. Description: Prob-Train (SSMD vs DMSO vehicle); higher = higher than vehicle (e.g. higher dark-flash O-bend response probability, or better optomotor performance).

The list shows a part of the results. Repeats in this data set agree poorly, so a single value says little.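 Researchers measured free-swimming zebrafish larvae's O-bend response probability to dark flashes (naive: first five; training: remaining flashes of four 60-flash blocks; test: later 60-flash block) and OMR turning toward alternating leftward/rightward LED motion. Six treated larvae were compared to sixty 0.1% DMSO controls, with |SSMD|≥2 marking a hit.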

In turn, `C=C(C)[C@@H]1[C@H]2OC(=O)[C@@H]1[C@]1(O)C[C@H]3O[C@]34C(=O)O[C@H]2[C@]14C` [Picrotoxinin] registered an OMR-Perf in assay [1] of -0.453. The molecule also returned a Prob-Test in assay [2] of 1.06. In addition, the Prob-Naive in assay [3] was 0.259. The molecule further had a Prob-Train in assay [4] of 2.06.
